Assay results

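Malaria parasite (P. falciparum) lines kept in red blood cells; parasite DNA is measured by SYBR Green fluorescence after lysis, 72 h after compound addition.
Each compound was titrated across a series from about 0.000037 to 29 µM.
The number is the fitted AC50, the concentration giving a half-maximal change in signal; a lower value means higher potency, whether the curve shows a decrease or an increase.
Calls follow the curve class and fit quality: every row here is inconclusive, covering signal-raising curves and weak, poorly fitted, partial or highest-dose-only inhibition curves.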

Values are in nM.
Every entry below has the call inconclusive.
These entries are mostly ones the record files as inconclusive; other results of the assay are not listed here.
A potency from a partial, single-point or poor curve is only a rough figure.
Some entries filed as inconclusive have a full curve.
The first word of each remark tells which way the curve ran; it can be opposite to the aim of the assay.

For CO[C@@H]1[C@@H](OC2OC(C)C(OC3CC(C)(O)C(OC(=O)CC(C)C)C(C)O3)C(N(C)C)C2O)[C@@H](CC=O)C[C@@H](C)C(=O)/C=C\C2O[C@H]2C[C@@H](C)OC(=O)C[C@H]1OC(C)=O (stereo partly specified) [CP329] the result was Potency 1069 nM (inhibitor, full curve).
For CO[C@@H]1[C@@H](OC2OC(C)C(OC3CC(C)(O)C(OC(=O)CC(C)C)C(C)O3)C(N(C)C)C2O)[C@@H](CC=O)C[C@@H](C)C(=O)/C=C\C2O[C@H]2C[C@@H](C)OC(=O)C[C@H]1OC(C)=O (stereo partly specified) [CP266] the result was Potency 756.9 nM (inhibitor, full curve, poor fit).
For CO[C@@H]1[C@@H](OC2OC(C)C(OC3CC(C)(O)C(OC(=O)CC(C)C)C(C)O3)C(N(C)C)C2O)[C@@H](CC=O)C[C@@H](C)C(=O)/C=C\C2O[C@H]2C[C@@H](C)OC(=O)C[C@H]1OC(C)=O (stereo partly specified) [CP262] the result was Potency 952.8 nM (inhibitor, full curve).
For CO[C@@H]1[C@@H](OC2OC(C)C(OC3CC(C)(O)C(OC(=O)CC(C)C)C(C)O3)C(N(C)C)C2O)[C@@H](CC=O)C[C@@H](C)C(=O)/C=C\C2O[C@H]2C[C@@H](C)OC(=O)C[C@H]1OC(C)=O (stereo partly specified) [PC26] the result was Potency 1694 nM (inhibitor, full curve, poor fit).
For CO[C@@H]1[C@@H](OC2OC(C)C(OC3CC(C)(O)C(OC(=O)CC(C)C)C(C)O3)C(N(C)C)C2O)[C@@H](CC=O)C[C@@H](C)C(=O)/C=C\C2O[C@H]2C[C@@H](C)OC(=O)C[C@H]1OC(C)=O (stereo partly specified) [TAB165] the result was Potency 11220 nM (inhibitor, partial curve, poor fit).
For CO[C@@H]1[C@@H](OC2OC(C)C(OC3CC(C)(O)C(OC(=O)CC(C)C)C(C)O3)C(N(C)C)C2O)[C@@H](CC=O)C[C@@H](C)C(=O)/C=C\C2O[C@H]2C[C@@H](C)OC(=O)C[C@H]1OC(C)=O (stereo partly specified) [CP203] the result was Potency 1200 nM (inhibitor, full curve).
For CO[C@@H]1[C@@H](OC2OC(C)C(OC3CC(C)(O)C(OC(=O)CC(C)C)C(C)O3)C(N(C)C)C2O)[C@@H](CC=O)C[C@@H](C)C(=O)/C=C\C2O[C@H]2C[C@@H](C)OC(=O)C[C@H]1OC(C)=O (stereo partly specified) [DIV30] the result was Potency 1200 nM (inhibitor, full curve).
For CO[C@@H]1[C@@H](OC2OC(C)C(OC3CC(C)(O)C(OC(=O)CC(C)C)C(C)O3)C(N(C)C)C2O)[C@@H](CC=O)C[C@@H](C)C(=O)/C=C\C2O[C@H]2C[C@@H](C)OC(=O)C[C@H]1OC(C)=O (stereo partly specified) [CP215] the result was Potency 1200 nM (inhibitor, full curve).
For CO[C@@H]1[C@@H](OC2OC(C)C(OC3CC(C)(O)C(OC(=O)CC(C)C)C(C)O3)C(N(C)C)C2O)[C@@H](CC=O)C[C@@H](C)C(=O)/C=C\C2O[C@H]2C[C@@H](C)OC(=O)C[C@H]1OC(C)=O (stereo partly specified) [CP201] the result was Potency 1346 nM (inhibitor, full curve).
For CO[C@@H]1[C@@H](OC2OC(C)C(OC3CC(C)(O)C(OC(=O)CC(C)C)C(C)O3)C(N(C)C)C2O)[C@@H](CC=O)C[C@@H](C)C(=O)/C=C\C2O[C@H]2C[C@@H](C)OC(=O)C[C@H]1OC(C)=O (stereo partly specified) [CP315] the result was Potency 1346 nM (inhibitor, full curve).
For CO[C@@H]1[C@@H](OC2OC(C)C(OC3CC(C)(O)C(OC(=O)CC(C)C)C(C)O3)C(N(C)C)C2O)[C@@H](CC=O)C[C@@H](C)C(=O)/C=C\C2O[C@H]2C[C@@H](C)OC(=O)C[C@H]1OC(C)=O (stereo partly specified) [CP194] the result was Potency 1694 nM (inhibitor, full curve).
For CO[C@@H]1[C@@H](OC2OC(C)C(OC3CC(C)(O)C(OC(=O)CC(C)C)C(C)O3)C(N(C)C)C2O)[C@@H](CC=O)C[C@@H](C)C(=O)/C=C\C2O[C@H]2C[C@@H](C)OC(=O)C[C@H]1OC(C)=O (stereo partly specified) [CP297] the result was Potency 1346 nM (inhibitor, full curve).
For O=C1Nc2ccc(Cl)cc2C(C#CC2CC2)(C(F)(F)F)O1 (stereo unspecified) [CP215] the result was Potency 11995 nM (inhibitor, single point).
For O=C1Nc2ccc(Cl)cc2C(C#CC2CC2)(C(F)(F)F)O1 (stereo unspecified) [CP297] the result was Potency 21331 nM (inhibitor, partial curve, poor fit).
For O=C1Nc2ccc(Cl)cc2C(C#CC2CC2)(C(F)(F)F)O1 (stereo unspecified) [PAD] the result was Potency 11220 nM (inhibitor, single point).
For O=C1Nc2ccc(Cl)cc2C(C#CC2CC2)(C(F)(F)F)O1 (stereo unspecified) [AS120] the result was Potency 281.8 nM (inhibitor, full curve, poor fit).
For O=C1Nc2ccc(Cl)cc2C(C#CC2CC2)(C(F)(F)F)O1 (stereo unspecified) [CP335] the result was Potency 10690 nM (inhibitor, partial curve, poor fit).
For O=C1Nc2ccc(Cl)cc2C(C#CC2CC2)(C(F)(F)F)O1 (stereo unspecified) [ICS] the result was Potency 17782 nM (inhibitor, single point).
For O=C1Nc2ccc(Cl)cc2C(C#CC2CC2)(C(F)(F)F)O1 (stereo unspecified) [CP266] the result was Potency 16.9 nM (inhibitor, full curve, poor fit).
For O=C1Nc2ccc(Cl)cc2C(C#CC2CC2)(C(F)(F)F)O1 (stereo unspecified) [CP194] the result was Potency 11995 nM (inhibitor, partial curve, poor fit).
For O=C1Nc2ccc(Cl)cc2C(C#CC2CC2)(C(F)(F)F)O1 (stereo unspecified) [GB4] the result was Potency 16944 nM (inhibitor, partial curve, poor fit).
For O=C1Nc2ccc(Cl)cc2C(C#CC2CC2)(C(F)(F)F)O1 (stereo unspecified) [DIV14] the result was Potency 19011 nM (inhibitor, single point).
For O=C1Nc2ccc(Cl)cc2C(C#CC2CC2)(C(F)(F)F)O1 (stereo unspecified) [PC26] the result was Potency 13459 nM (inhibitor, single point).
For O=C1Nc2ccc(Cl)cc2C(C#CC2CC2)(C(F)(F)F)O1 (stereo unspecified) [DIV17] the result was Potency 6746 nM (inhibitor, partial curve, poor fit).
For O=C1Nc2ccc(Cl)cc2C(C#CC2CC2)(C(F)(F)F)O1 (stereo unspecified) [PC15] the result was Potency 17782 nM (inhibitor, single point).
For O=C1Nc2ccc(Cl)cc2C(C#CC2CC2)(C(F)(F)F)O1 (stereo unspecified) [P93_24] the result was Potency 3981 nM (inhibitor, single point).
For [O-][N+](=Nc1ccccc1)c1ccccc1 [CP203] the result was Potency 1.5 nM (activator, full curve, poor fit).
For Cc1cccc(C)c1NC(=O)[C@H](C)N [CP329] the result was Potency 7208 nM (inhibitor, single point).
For Cc1cccc(C)c1NC(=O)[C@H](C)N [DIV30] the result was Potency 6424 nM (inhibitor, single point).
For Cc1cccc(C)c1NC(=O)[C@H](C)N [CP269] the result was Potency 7208 nM (inhibitor, single point).

The first 4 entries again:

{"compound": "CO[C@@H]1[C@@H](OC2OC(C)C(OC3CC(C)(O)C(OC(=O)CC(C)C)C(C)O3)C(N(C)C)C2O)[C@@H](CC=O)C[C@@H](C)C(=O)/C=C\\C2O[C@H]2C[C@@H](C)OC(=O)C[C@H]1OC(C)=O", "stereo": "stereo partly specified", "condition": "CP329", "Potency (nM)": "1069", "remark": "inhibitor, full curve"}
{"compound": "CO[C@@H]1[C@@H](OC2OC(C)C(OC3CC(C)(O)C(OC(=O)CC(C)C)C(C)O3)C(N(C)C)C2O)[C@@H](CC=O)C[C@@H](C)C(=O)/C=C\\C2O[C@H]2C[C@@H](C)OC(=O)C[C@H]1OC(C)=O", "stereo": "stereo partly specified", "condition": "CP266", "Potency (nM)": "756.9", "remark": "inhibitor, full curve, poor fit"}
{"compound": "CO[C@@H]1[C@@H](OC2OC(C)C(OC3CC(C)(O)C(OC(=O)CC(C)C)C(C)O3)C(N(C)C)C2O)[C@@H](CC=O)C[C@@H](C)C(=O)/C=C\\C2O[C@H]2C[C@@H](C)OC(=O)C[C@H]1OC(C)=O", "stereo": "stereo partly specified", "condition": "CP262", "Potency (nM)": "952.8", "remark": "inhibitor, full curve"}
{"compound": "CO[C@@H]1[C@@H](OC2OC(C)C(OC3CC(C)(O)C(OC(=O)CC(C)C)C(C)O3)C(N(C)C)C2O)[C@@H](CC=O)C[C@@H](C)C(=O)/C=C\\C2O[C@H]2C[C@@H](C)OC(=O)C[C@H]1OC(C)=O", "stereo": "stereo partly specified", "condition": "PC26", "Potency (nM)": "1694", "remark": "inhibitor, full curve, poor fit"}

The results are deposited in PubChem (AID504749; NCATS, 2011).